The target in one test is DPP4 (Homo sapiens, UniProt P27487). As to the kind of experiment: DPP4 inhibition, fluorogenic substrate H-Gly-Pro-AMC. The class given is biochemical. The settings on record: read-out: Inhibitory Activity (IC50, nM) hDPP4.
For the next test, the target named is Recombinant human FAP (Homo sapiens, UniProt Q12884). As to the kind of experiment: FAP FRET assay, FGF21-sequence FRET peptide substrate. In kind it is biochemical. The note with it: read-out: Inhibitory Activity (IC50, nM) hFAP FRET; FRET peptide with human FGF21 sequence, 6 μM, 37° C.

Amino acid sequences for entries named in this document (tags omitted).
UniProt P27487, whole entry: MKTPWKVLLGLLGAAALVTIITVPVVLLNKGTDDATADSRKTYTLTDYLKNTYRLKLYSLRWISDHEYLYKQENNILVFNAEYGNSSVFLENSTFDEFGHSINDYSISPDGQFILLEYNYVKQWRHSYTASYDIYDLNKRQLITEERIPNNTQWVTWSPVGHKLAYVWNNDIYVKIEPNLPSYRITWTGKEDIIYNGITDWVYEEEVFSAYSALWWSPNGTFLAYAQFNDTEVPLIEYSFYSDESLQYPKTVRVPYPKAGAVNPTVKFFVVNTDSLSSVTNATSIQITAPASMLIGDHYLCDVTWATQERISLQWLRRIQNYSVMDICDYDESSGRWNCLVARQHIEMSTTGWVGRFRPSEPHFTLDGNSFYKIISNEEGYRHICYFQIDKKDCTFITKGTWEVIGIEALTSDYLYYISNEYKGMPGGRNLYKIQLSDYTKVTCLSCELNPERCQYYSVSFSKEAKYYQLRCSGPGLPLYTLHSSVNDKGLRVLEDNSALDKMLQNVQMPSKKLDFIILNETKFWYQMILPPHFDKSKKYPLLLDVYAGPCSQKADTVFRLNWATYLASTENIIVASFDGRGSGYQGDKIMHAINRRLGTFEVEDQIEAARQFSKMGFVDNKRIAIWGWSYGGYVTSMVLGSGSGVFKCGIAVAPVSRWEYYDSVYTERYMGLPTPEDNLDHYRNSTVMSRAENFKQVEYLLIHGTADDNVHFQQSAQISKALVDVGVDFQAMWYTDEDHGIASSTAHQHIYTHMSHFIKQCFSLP
UniProt Q12884, whole entry: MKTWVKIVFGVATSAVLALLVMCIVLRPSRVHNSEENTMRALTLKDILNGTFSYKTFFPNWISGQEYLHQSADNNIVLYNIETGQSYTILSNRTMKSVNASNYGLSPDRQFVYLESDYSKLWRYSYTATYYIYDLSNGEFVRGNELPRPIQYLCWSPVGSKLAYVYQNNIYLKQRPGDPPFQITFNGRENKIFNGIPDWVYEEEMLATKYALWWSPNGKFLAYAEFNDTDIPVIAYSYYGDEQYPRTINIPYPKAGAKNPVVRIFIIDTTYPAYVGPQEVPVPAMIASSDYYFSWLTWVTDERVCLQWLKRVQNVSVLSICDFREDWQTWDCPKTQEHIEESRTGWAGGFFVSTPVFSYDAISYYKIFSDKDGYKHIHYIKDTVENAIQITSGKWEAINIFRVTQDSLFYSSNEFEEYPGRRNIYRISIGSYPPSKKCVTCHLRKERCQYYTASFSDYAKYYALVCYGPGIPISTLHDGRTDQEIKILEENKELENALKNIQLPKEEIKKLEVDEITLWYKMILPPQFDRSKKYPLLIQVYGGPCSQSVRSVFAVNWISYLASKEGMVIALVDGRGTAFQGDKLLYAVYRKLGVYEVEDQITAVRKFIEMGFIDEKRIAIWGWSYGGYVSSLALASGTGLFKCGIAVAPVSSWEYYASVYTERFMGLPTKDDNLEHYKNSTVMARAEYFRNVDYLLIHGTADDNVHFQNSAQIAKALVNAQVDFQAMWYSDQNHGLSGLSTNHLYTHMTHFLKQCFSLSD

The structures given here were assigned with low confidence; some may be wrong.

As to `N#C[C@@H]1C[C@H](F)CN1C(=O)CN1CCC(Nc2cnc3ccccc3c2)CC1`, the concentration for half-maximal inhibition (IC50) is at least 10000 nM at DPP4 and 27.6 nM on Recombinant human FAP.

For the origin of these results see patent publication US11655235B2, “Pyrrolidine and piperidine compounds” (YUHAN CORPORATION, priority 2019, dated 2023).
